Values from PubChem BioAssay AID1224828 (NIAID, 2016)
The deposit covers about 17,000 reagents; below is a part drawn at random. Of all reagents, 762 (4.5%) are marked active. 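Active calls include both raised and lowered p65 entry, mostly lowered; wells with fewer than 50 cells lack a z-score.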 Raw values are not corrected between plates.

Aim: 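Find genes required for NF-kappaB p65 moving into the nucleus after LPS in mouse macrophages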 (primary screen)
System: mouse RAW264.7 G9 macrophage reporter cells (GFP-p65, Tnf promoter-mCherry)
Reagents: siRNA pool against mouse genes, 100 nM
Timing: 2 days siRNA transfection, then 40 min LPS before fixation
Challenge: LPS (Salmonella minnesota R595) at 10 ng/ml
Measurement: 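Microscopy ratio of nuclear to perinuclear-ring GFP-p65 signal, scaled to the plate median; gene score is the average of two replicate robust z-scores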
Scale: p65 translocation robust z-score: higher = more nuclear NF-kappaB p65 after LPS than the plate median; nuclear/cytoplasmic p65 ratio: higher = more nuclear NF-kappaB p65
Call rule: 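Called active when z exceeds 3.3 or falls under -1.56 (median of Tlr4 controls), giving activity score of at least 50; no calls for control wells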
Meaning of the calls: active = hit (p65 shift raised or lowered); inactive = no clear change

| Gene | p65 translocation robust z-score | nuclear/cytoplasmic p65 ratio, rep 1 | nuclear/cytoplasmic p65 ratio, rep 2 | low cell count flag | call |
| --- | --- | --- | --- | --- | --- |
| Panx3 | – | 1.44 | 1.3 | fewer than 50 cells per well; well left out of scoring | inactive |
| Nfkbia | -2.03 | 1.13 | 1.19 | enough cells to score | active |
| Slc16a4 | 1.62 | 1.65 | 1.41 | enough cells to score | inactive |
| Rrp7a | -0.21 | 1.53 | 1.4 | enough cells to score | inactive |
| Clec2e | -0.05 | 1.62 | 1.73 | enough cells to score | inactive |
| Lamb2 | 1.14 | 1.64 | 1.52 | enough cells to score | inactive |
| Or8h7 | 0.69 | 1.76 | 1.68 | enough cells to score | inactive |
| Tubg1 | -0.67 | 1.54 | 1.29 | enough cells to score | inactive |
| Eci3 | – | 1.51 | 2.1 | fewer than 50 cells per well; well left out of scoring | inactive |
| Ezr | -0.98 | 1.35 | 1.39 | enough cells to score | inactive |
| Kansl1l | -0.24 | 1.34 | 1.55 | enough cells to score | inactive |
| Fam135a | 0.83 | 1.31 | 1.45 | enough cells to score | inactive |
| Taok3 | -1.9 | 1.32 | 1.26 | enough cells to score | active |
| Flrt2 | 0.21 | 1.47 | 1.63 | enough cells to score | inactive |
| Elane | -0.03 | 1.41 | 1.36 | enough cells to score | inactive |
| Or5b112 | 0.99 | 1.85 | 1.47 | enough cells to score | inactive |
| Tnni1 | -0.03 | 1.49 | 1.54 | enough cells to score | inactive |
| Plscr2 | – | 1.7 | 1.28 | fewer than 50 cells per well; well left out of scoring | inactive |
| Cts7 | 0.71 | 1.72 | 1.86 | enough cells to score | inactive |
| Trip6 | 0.7 | 1.56 | 1.65 | enough cells to score | inactive |
| Crtam | 0.09 | 1.45 | 1.42 | enough cells to score | inactive |
| Dyrk3 | -1.08 | 1.58 | 1.2 | enough cells to score | inactive |
| F2r | -0.4 | 1.43 | 1.55 | enough cells to score | inactive |
| Ccdc70 | – | 2.07 | 1.74 | fewer than 50 cells per well; well left out of scoring | inactive |
| Nfix | -0.34 | 1.47 | 1.31 | enough cells to score | inactive |
| Atxn7l2 | – | 1.28 | 1.17 | fewer than 50 cells per well; well left out of scoring | inactive |
| Cdh11 | 1.03 | 1.76 | 1.37 | enough cells to score | inactive |
| Cbln4 | 0.4 | 1.67 | 1.83 | enough cells to score | inactive |
| Or13p8 | – | 1.54 | 1.44 | fewer than 50 cells per well; well left out of scoring | inactive |
| Nkg7 | 1.89 | 1.73 | 1.63 | enough cells to score | inactive |
| Il13ra1 | -0.58 | 1.35 | 1.31 | enough cells to score | inactive |
| Fn1 | -0.53 | 1.33 | 1.34 | enough cells to score | inactive |
| Or8c16 | 0.87 | 1.65 | 1.3 | enough cells to score | inactive |
| Pbx2 | -0.69 | 1.28 | 1.39 | enough cells to score | inactive |
| Tmem65 | – | 1.07 | 1.09 | fewer than 50 cells per well; well left out of scoring | inactive |
| Trim32 | -0.14 | 1.56 | 1.42 | enough cells to score | inactive |
| Tent4b | 0.22 | 1.64 | 1.65 | enough cells to score | inactive |
| Gigyf1 | 1.41 | 1.65 | 1.38 | enough cells to score | inactive |
| L1cam | -0.68 | 1.37 | 1.29 | enough cells to score | inactive |
| Ppp1r9b | 0.79 | 1.64 | 1.48 | enough cells to score | inactive |
| Cops7a | 1.44 | 1.78 | 2.03 | enough cells to score | inactive |
| 4921517D22Rik | – | 1.5 | 1.14 | fewer than 50 cells per well; well left out of scoring | inactive |
| Tmem74 | -1.45 | 1.35 | 1.35 | enough cells to score | inactive |
| Dym | 1.85 | 1.53 | 1.71 | enough cells to score | inactive |
| Pdap1 | – | 1.42 | 1.3 | fewer than 50 cells per well; well left out of scoring | inactive |
| Pou2f1 | 2.32 | 1.63 | 1.88 | enough cells to score | inactive |
| Iqcg | – | 1.18 | 1.08 | fewer than 50 cells per well; well left out of scoring | inactive |
| Mthfs | -0.56 | 1.68 | 1.52 | enough cells to score | inactive |
| Btbd9 | – | 1.12 | 1.25 | fewer than 50 cells per well; well left out of scoring | inactive |
| Fzd5 | 0.3 | 1.52 | 1.66 | enough cells to score | inactive |
| AI504432 | 1.4 | 1.78 | 1.94 | enough cells to score | inactive |
| Rad9a | 1.53 | 1.84 | 1.63 | enough cells to score | inactive |
| A530079E22Rik | -0.49 | 1.26 | 1.52 | enough cells to score | inactive |
| Pfdn2 | -1.12 | 1.36 | 1.21 | enough cells to score | inactive |
| Srsf5 | -0.09 | 1.59 | 1.25 | enough cells to score | inactive |
| Atf6 | 0.82 | 1.74 | 1.73 | enough cells to score | inactive |
| Creld2 | -0.49 | 1.36 | 1.33 | enough cells to score | inactive |
| Tm4sf5 | -1.9 | 1.05 | 1.05 | enough cells to score | active |
| A730008H23Rik | 0.43 | 1.78 | 1.57 | enough cells to score | inactive |
| Gfer | -0.5 | 1.35 | 1.32 | enough cells to score | inactive |
| Pomt1 | -0.16 | 1.51 | 1.36 | enough cells to score | inactive |
| Or2c1 | 0.78 | 1.51 | 1.81 | enough cells to score | inactive |
| Mtrf1 | -0.45 | 1.69 | 1.55 | enough cells to score | inactive |
| Or7g21 | – | 1.33 | 1.16 | fewer than 50 cells per well; well left out of scoring | inactive |
| Dynlrb2 | -2.83 | 1.06 | 1.04 | enough cells to score | active |
| Ggt1 | 0.16 | 1.44 | 1.41 | enough cells to score | inactive |
| Trhr | -2.14 | 1.22 | 1.27 | enough cells to score | active |
| Gpc5 | -0.52 | 1.58 | 1.45 | enough cells to score | inactive |
| Sel1l | -0.39 | 1.49 | 1.5 | enough cells to score | inactive |
| Tbp | -1.15 | 1.34 | 1.37 | enough cells to score | inactive |
| Icam4 | 0.61 | 1.6 | 1.55 | enough cells to score | inactive |
| Cfap43 | – | 1.28 | 1.37 | fewer than 50 cells per well; well left out of scoring | inactive |
| Rmp24 | 1.18 | 1.56 | 1.33 | enough cells to score | inactive |
| Or8g34 | 0.65 | 1.52 | 1.33 | enough cells to score | inactive |
| Lsm7 | -1.27 | 1.61 | 1.28 | enough cells to score | inactive |

Active calls, among the entries above:
| Gene | p65 translocation robust z-score | nuclear/cytoplasmic p65 ratio, rep 1 | nuclear/cytoplasmic p65 ratio, rep 2 | low cell count flag | call |
| --- | --- | --- | --- | --- | --- |
| Nfkbia | -2.03 | 1.13 | 1.19 | enough cells to score | active |
| Taok3 | -1.9 | 1.32 | 1.26 | enough cells to score | active |
| Tm4sf5 | -1.9 | 1.05 | 1.05 | enough cells to score | active |
| Dynlrb2 | -2.83 | 1.06 | 1.04 | enough cells to score | active |
| Trhr | -2.14 | 1.22 | 1.27 | enough cells to score | active |
